Source: the supplement of paper PMC9233669
This sample is rich in variants without activity.

Tests used:
[1] = system: biotinyl-Trp-oxazolone; assay: self-aminoacylation, catalytic enhancement (BWO) (fold over background); higher = more active; k-Seq, kA / k0A0; sequences stand for … in GGGAAUGGAUCCACAUCUACGAAUUC…UUCACUGCAGACUUGACGAAGCUG
Procedure, shortened: (§1)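 Mutagenized RNA pools with a 21-nt variable region (0.43 μM) were reacted with each biotinyl-aminoacyl-oxazolone at 2–1250 μM for 90 minutes at room temperature, in 50 μL HEPES/NaCl/KCl/MgCl2/CaCl2 buffer containing 5% acetonitrile at pH 6.9–7.0. RNA captured on streptavidin was quantified by triplicate qPCR and by Illumina sequencing. The fraction reacted for each sequence was fit to a pseudo-first-order model with bootstrapping, and catalytic enhancement is the median kA divided by the uncatalyzed rate, taken as the low-activity peak of a bimodal Gaussian fit.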

[2] = system: biotinyl-Ile-oxazolone; assay: self-aminoacylation, catalytic enhancement (BIO) (fold over background); higher = more active; k-Seq, kA / k0A0; sequences stand for … in GGGAAUGGAUCCACAUCUACGAAUUC…UUCACUGCAGACUUGACGAAGCUG
Procedure, shortened: as §1

[3] = system: biotinyl-Leu-oxazolone; assay: self-aminoacylation, catalytic enhancement (BLO) (fold over background); higher = more active; k-Seq, kA / k0A0; sequences stand for … in GGGAAUGGAUCCACAUCUACGAAUUC…UUCACUGCAGACUUGACGAAGCUG
Procedure, shortened: as §1

[4] = system: biotinyl-Phe-oxazolone; assay: self-aminoacylation, catalytic enhancement (BFO) (fold over background); higher = more active; k-Seq, kA / k0A0; sequences stand for … in GGGAAUGGAUCCACAUCUACGAAUUC…UUCACUGCAGACUUGACGAAGCUG
Procedure, shortened: as §1

[5] = system: biotinyl-Val-oxazolone; assay: self-aminoacylation, catalytic enhancement (BVO) (fold over background); higher = more active; k-Seq, kA / k0A0; sequences stand for … in GGGAAUGGAUCCACAUCUACGAAUUC…UUCACUGCAGACUUGACGAAGCUG
Procedure, shortened: as §1

[6] = system: biotinyl-Met-oxazolone; assay: self-aminoacylation, catalytic enhancement (BMO) (fold over background); higher = more active; k-Seq, kA / k0A0; sequences stand for … in GGGAAUGGAUCCACAUCUACGAAUUC…UUCACUGCAGACUUGACGAAGCUG
Procedure, shortened: as §1

Row | Sequence | self-aminoacylation [1] | self-aminoacylation [2] | self-aminoacylation [3] | self-aminoacylation [4] | self-aminoacylation [5] | self-aminoacylation [6]
1 | UAGUUUGCUAUUAGUCGCAAG [Fam3.1 aminoacylation ribozyme variant] | 1.55 | 1.4 | 1.18 | 1.69 | 1.32 | 1
2 | AGUACCUUGGUCAUCGAGUGA [Fam2.1 aminoacylation ribozyme variant] | 8.17 | 4.3 | 6.37 | 19 | 4.07 | 6.27
3 | UCACACUGCAAGCAAUCGGUC [Fam1B.1 aminoacylation ribozyme variant] | 0.709 | 1.13 | 0.979 | 1.26 | 1.21 | 0.998
4 | CCACACUUCAAGUAAUCUGUC [Fam1B.1 aminoacylation ribozyme variant] | 0.361 | 0.451 | 0.449 | 0.818 | 0.496 | 0.47
5 | AAGUUUGCUAAUAAUGGCAAG [Fam3.1 aminoacylation ribozyme variant] | 0.585 | 0.644 | 0.479 | 0.786 | 0.727 | 0.599
6 | AUUCAACUAGGUCGUCGGGUG [Fam2.2 aminoacylation ribozyme variant] | 1.38 | 1.59 | 1.8 | 6.9 | 1.65 | 1.35
7 | CUACUUCAAGCGAUCGGUCUG [Fam1A.1 aminoacylation ribozyme variant] | 0.654 | 0.77 | 0.799 | 0.917 | 0.781 | 0.769
8 | AAGUUUGCUAAUAACCGCAAG [Fam3.1 aminoacylation ribozyme variant] | 0.794 | 0.783 | 0.485 | 1.03 | 0.737 | 0.682
9 | CUACUUCAAACAUUCGGACUG [Fam1A.1 aminoacylation ribozyme variant] | 1.23 | 1.08 | 0.973 | 0.626 | 1.22 | 0.972
10 | CCACACUUCAAGUAAUCGGUU [Fam1B.1 aminoacylation ribozyme variant] | 1.71 | 1.17 | 1.16 | 1.65 | 1.28 | 1.11
11 | AUUACCCUGGUCAUUGAGUCA [Fam2.1 aminoacylation ribozyme variant] | 0.529 | 0.714 | 0.565 | 0.839 | 0.781 | 0.726
12 | AAGUUUGCUAAUAGUGGCCAG [Fam3.1 aminoacylation ribozyme variant] | 1.29 | 0.746 | 0.736 | 0.779 | 0.669 | 0.838
13 | AAGUUUGCUUGUAGUCGCAAG [Fam3.1 aminoacylation ribozyme variant] | 0.911 | 0.724 | 0.707 | 1.09 | 0.819 | 0.732
14 | CCACAUUUCAAGCAAUCGAUC [Fam1B.1 aminoacylation ribozyme variant] | 0.66 | 0.834 | 0.689 | 0.898 | 0.951 | 0.642
15 | AUUCACCUAGGUCAUCGAGUC [Fam2.2 aminoacylation ribozyme variant] | 0.52 | 0.5 | 0.629 | 0.714 | 0.615 | 0.501
16 | CUACUUCAAACAACCGGUCUU [Fam1A.1 aminoacylation ribozyme variant] | 1.05 | 1.32 | 0.871 | 0.875 | 0.899 | 0.686
17 | CCACACUGCAAGUAAUCGGUC [Fam1B.1 aminoacylation ribozyme variant] | 1.03 | 0.952 | 1.11 | 0.95 | 1.04 | 0.919
18 | AUUACCCUCGUCAUCUAGUGA [Fam2.1 aminoacylation ribozyme variant] | 4.43 | 2.3 | 3.57 | 9.86 | 2.7 | 3.26
19 | AAGUUUGUUAAUAGUCGCAUG [Fam3.1 aminoacylation ribozyme variant] | 1.41 | 1.22 | 1.39 | 1.57 | 1.18 | 1.6
20 | CUACUUCAAAUAAUCCGUCUG [Fam1A.1 aminoacylation ribozyme variant] | 1.01 | 0.756 | 0.732 | 1.35 | 0.81 | 0.701
21 | CCACACUUCAAGCAAUGCGUC [Fam1B.1 aminoacylation ribozyme variant] | 1.06 | 1.03 | 0.86 | 1.08 | 0.963 | 0.967
22 | CCCCACUUCAAGCAAUUGGUC [Fam1B.1 aminoacylation ribozyme variant] | 1.61 | 0.92 | 0.878 | 1.82 | 0.977 | 0.861
23 | AAGUUUGCUAAUCGUCGCCAG [Fam3.1 aminoacylation ribozyme variant] | 1.72 | 1.19 | 1.32 | 1.06 | 1.57 | 1.02
24 | AUGAGCCUGGUCAUCGAGUGA [Fam2.1 aminoacylation ribozyme variant] | 6.33 | 3.82 | 5.69 | 31.3 | 3.71 | 5.66
25 | AAGUGUGUUAAUAGUCGCAAG [Fam3.1 aminoacylation ribozyme variant] | 1.42 | 1.49 | 1.6 | 1.86 | 1.38 | 1.48
26 | AUUACCCUGGACAUCGAGUCA [Fam2.1 aminoacylation ribozyme variant] | 0.376 | 0.753 | 0.637 | 0.367 | 0.672 | 0.865

Row | Sequence | self-aminoacylation [1] | self-aminoacylation [2] | self-aminoacylation [3] | self-aminoacylation [4] | self-aminoacylation [5] | self-aminoacylation [6]
27 | CUACAUCAAACAAUCGUUCUG [Fam1A.1 aminoacylation ribozyme variant] | 0.423 | 0.708 | 0.831 | 0.758 | 0.691 | 0.634
28 | CCACACUGCAAGCAAUCAGUC [Fam1B.1 aminoacylation ribozyme variant] | 0.551 | 0.79 | 0.852 | 1.1 | 0.741 | 0.584
29 | CUACGUCAAACAAUCGGACUG [Fam1A.1 aminoacylation ribozyme variant] | 1.48 | 1.42 | 1.19 | 0.786 | 1.37 | 1.14
30 | AAGUUCCCUAAUAGUCGCAAG [Fam3.1 aminoacylation ribozyme variant] | 0.613 | 1.12 | 0.965 | 0.485 | 0.992 | 0.931
31 | AUACUUGAAACAAUCGGUCUG [Fam1A.1 aminoacylation ribozyme variant] | 0.899 | 0.932 | 0.947 | 1.02 | 0.82 | 0.912
32 | AUUUACCUAGGUCACCGGGUG [Fam2.2 aminoacylation ribozyme variant] | 3.83 | 3.61 | 6.09 | 26.5 | 3.08 | 4.23
33 | AAGUUUGCUAAUAGUCCCUAG [Fam3.1 aminoacylation ribozyme variant] | 0.898 | 0.917 | 0.786 | 1.29 | 0.988 | 0.896
34 | AAGUUUGCUUAUAUUCGCAAG [Fam3.1 aminoacylation ribozyme variant] | 1.13 | 0.973 | 0.929 | 0.841 | 0.987 | 0.952
35 | AAGUUUCCCAAUAGUCGCAAG [Fam3.1 aminoacylation ribozyme variant] | 1.69 | 1.26 | 1.24 | 1.52 | 1.02 | 1.44
36 | UAGUUUGCUAAUAGUAGCAAG [Fam3.1 aminoacylation ribozyme variant] | 1.02 | 1.12 | 0.846 | 1.53 | 1.1 | 1.12
37 | AAGUUUGCGAAUAGUCGUAAG [Fam3.1 aminoacylation ribozyme variant] | 0.709 | 0.676 | 0.69 | 0.591 | 0.665 | 0.656
38 | CAGUUUGCUAAUAGUCGCCAG [Fam3.1 aminoacylation ribozyme variant] | 2.45 | 1.86 | 2.43 | 10.1 | 2.17 | 1.91
39 | AAGUUUGCUAAUAAUCGCAGG [Fam3.1 aminoacylation ribozyme variant] | 1.05 | 1.07 | 0.897 | 1.17 | 0.857 | 1.03
40 | AUUACCCUGGUCAUCCAGUAA [Fam2.1 aminoacylation ribozyme variant] | 2.35 | 1.34 | 1.27 | 0.819 | 1.11 | 1.18
41 | CGACACUUCAAGCAACCGGUC [Fam1B.1 aminoacylation ribozyme variant] | 1.08 | 1.05 | 0.733 | 1.5 | 1.15 | 1.33
42 | CUACUUCAAACAAUGGGACUG [Fam1A.1 aminoacylation ribozyme variant] | 0.485 | 0.759 | 0.493 | 0.509 | 0.592 | 0.691
43 | AUUAGCCCGGUCAUCGAGUGA [Fam2.1 aminoacylation ribozyme variant] | 7.74 | 3.45 | 6.64 | 55.9 | 3.57 | 6.23
44 | AAGUUUUCUAAUAGUCGUAAG [Fam3.1 aminoacylation ribozyme variant] | 1.48 | 1.19 | 1.05 | 2.29 | 1.26 | 1.16
45 | AUUCACCUAGGUAAUCGGGGG [Fam2.2 aminoacylation ribozyme variant] | 1.06 | 1.72 | 1.82 | 0.704 | 1.5 | 1.55
46 | AAGUUUGCUAAUGCUCGCAAG [Fam3.1 aminoacylation ribozyme variant] | 0.676 | 0.834 | 0.856 | 0.708 | 0.945 | 0.779
47 | CCAAACGUCAAGCAAUCGGUC [Fam1B.1 aminoacylation ribozyme variant] | 1.16 | 1.42 | 1.46 | 1.38 | 1.97 | 1.52
48 | AAGUUUGCUAAUAGUGGGAAG [Fam3.1 aminoacylation ribozyme variant] | 0.598 | 0.841 | 0.876 | 1.48 | 1.03 | 0.971
49 | CCACUCUCCAAGCAAUCGGUC [Fam1B.1 aminoacylation ribozyme variant] | 1.19 | 1.34 | 0.968 | 1.24 | 1.06 | 1.25
50 | CUACUUCAAAUACUCGGUCUG [Fam1A.1 aminoacylation ribozyme variant] | 0.71 | 0.832 | 0.807 | 0.622 | 0.84 | 0.972
51 | AAGUUUACGAAUAGUCGCAAG [Fam3.1 aminoacylation ribozyme variant] | 1.77 | 1.67 | 1.55 | 2.82 | 1.26 | 1.55
